In PMC11304257:
Results are given in words; binding and its absence hold for the method and conditions named. In cells and extracts the contact can be indirect. Some results given as binding are weak or reduced against the parent protein; the word gives no strength. For some assays here: Where a sequence is shown, tags or fusion partners need not be part of it.

Amino acid sequences for entries named in this document (tags omitted).
UniProt P78527: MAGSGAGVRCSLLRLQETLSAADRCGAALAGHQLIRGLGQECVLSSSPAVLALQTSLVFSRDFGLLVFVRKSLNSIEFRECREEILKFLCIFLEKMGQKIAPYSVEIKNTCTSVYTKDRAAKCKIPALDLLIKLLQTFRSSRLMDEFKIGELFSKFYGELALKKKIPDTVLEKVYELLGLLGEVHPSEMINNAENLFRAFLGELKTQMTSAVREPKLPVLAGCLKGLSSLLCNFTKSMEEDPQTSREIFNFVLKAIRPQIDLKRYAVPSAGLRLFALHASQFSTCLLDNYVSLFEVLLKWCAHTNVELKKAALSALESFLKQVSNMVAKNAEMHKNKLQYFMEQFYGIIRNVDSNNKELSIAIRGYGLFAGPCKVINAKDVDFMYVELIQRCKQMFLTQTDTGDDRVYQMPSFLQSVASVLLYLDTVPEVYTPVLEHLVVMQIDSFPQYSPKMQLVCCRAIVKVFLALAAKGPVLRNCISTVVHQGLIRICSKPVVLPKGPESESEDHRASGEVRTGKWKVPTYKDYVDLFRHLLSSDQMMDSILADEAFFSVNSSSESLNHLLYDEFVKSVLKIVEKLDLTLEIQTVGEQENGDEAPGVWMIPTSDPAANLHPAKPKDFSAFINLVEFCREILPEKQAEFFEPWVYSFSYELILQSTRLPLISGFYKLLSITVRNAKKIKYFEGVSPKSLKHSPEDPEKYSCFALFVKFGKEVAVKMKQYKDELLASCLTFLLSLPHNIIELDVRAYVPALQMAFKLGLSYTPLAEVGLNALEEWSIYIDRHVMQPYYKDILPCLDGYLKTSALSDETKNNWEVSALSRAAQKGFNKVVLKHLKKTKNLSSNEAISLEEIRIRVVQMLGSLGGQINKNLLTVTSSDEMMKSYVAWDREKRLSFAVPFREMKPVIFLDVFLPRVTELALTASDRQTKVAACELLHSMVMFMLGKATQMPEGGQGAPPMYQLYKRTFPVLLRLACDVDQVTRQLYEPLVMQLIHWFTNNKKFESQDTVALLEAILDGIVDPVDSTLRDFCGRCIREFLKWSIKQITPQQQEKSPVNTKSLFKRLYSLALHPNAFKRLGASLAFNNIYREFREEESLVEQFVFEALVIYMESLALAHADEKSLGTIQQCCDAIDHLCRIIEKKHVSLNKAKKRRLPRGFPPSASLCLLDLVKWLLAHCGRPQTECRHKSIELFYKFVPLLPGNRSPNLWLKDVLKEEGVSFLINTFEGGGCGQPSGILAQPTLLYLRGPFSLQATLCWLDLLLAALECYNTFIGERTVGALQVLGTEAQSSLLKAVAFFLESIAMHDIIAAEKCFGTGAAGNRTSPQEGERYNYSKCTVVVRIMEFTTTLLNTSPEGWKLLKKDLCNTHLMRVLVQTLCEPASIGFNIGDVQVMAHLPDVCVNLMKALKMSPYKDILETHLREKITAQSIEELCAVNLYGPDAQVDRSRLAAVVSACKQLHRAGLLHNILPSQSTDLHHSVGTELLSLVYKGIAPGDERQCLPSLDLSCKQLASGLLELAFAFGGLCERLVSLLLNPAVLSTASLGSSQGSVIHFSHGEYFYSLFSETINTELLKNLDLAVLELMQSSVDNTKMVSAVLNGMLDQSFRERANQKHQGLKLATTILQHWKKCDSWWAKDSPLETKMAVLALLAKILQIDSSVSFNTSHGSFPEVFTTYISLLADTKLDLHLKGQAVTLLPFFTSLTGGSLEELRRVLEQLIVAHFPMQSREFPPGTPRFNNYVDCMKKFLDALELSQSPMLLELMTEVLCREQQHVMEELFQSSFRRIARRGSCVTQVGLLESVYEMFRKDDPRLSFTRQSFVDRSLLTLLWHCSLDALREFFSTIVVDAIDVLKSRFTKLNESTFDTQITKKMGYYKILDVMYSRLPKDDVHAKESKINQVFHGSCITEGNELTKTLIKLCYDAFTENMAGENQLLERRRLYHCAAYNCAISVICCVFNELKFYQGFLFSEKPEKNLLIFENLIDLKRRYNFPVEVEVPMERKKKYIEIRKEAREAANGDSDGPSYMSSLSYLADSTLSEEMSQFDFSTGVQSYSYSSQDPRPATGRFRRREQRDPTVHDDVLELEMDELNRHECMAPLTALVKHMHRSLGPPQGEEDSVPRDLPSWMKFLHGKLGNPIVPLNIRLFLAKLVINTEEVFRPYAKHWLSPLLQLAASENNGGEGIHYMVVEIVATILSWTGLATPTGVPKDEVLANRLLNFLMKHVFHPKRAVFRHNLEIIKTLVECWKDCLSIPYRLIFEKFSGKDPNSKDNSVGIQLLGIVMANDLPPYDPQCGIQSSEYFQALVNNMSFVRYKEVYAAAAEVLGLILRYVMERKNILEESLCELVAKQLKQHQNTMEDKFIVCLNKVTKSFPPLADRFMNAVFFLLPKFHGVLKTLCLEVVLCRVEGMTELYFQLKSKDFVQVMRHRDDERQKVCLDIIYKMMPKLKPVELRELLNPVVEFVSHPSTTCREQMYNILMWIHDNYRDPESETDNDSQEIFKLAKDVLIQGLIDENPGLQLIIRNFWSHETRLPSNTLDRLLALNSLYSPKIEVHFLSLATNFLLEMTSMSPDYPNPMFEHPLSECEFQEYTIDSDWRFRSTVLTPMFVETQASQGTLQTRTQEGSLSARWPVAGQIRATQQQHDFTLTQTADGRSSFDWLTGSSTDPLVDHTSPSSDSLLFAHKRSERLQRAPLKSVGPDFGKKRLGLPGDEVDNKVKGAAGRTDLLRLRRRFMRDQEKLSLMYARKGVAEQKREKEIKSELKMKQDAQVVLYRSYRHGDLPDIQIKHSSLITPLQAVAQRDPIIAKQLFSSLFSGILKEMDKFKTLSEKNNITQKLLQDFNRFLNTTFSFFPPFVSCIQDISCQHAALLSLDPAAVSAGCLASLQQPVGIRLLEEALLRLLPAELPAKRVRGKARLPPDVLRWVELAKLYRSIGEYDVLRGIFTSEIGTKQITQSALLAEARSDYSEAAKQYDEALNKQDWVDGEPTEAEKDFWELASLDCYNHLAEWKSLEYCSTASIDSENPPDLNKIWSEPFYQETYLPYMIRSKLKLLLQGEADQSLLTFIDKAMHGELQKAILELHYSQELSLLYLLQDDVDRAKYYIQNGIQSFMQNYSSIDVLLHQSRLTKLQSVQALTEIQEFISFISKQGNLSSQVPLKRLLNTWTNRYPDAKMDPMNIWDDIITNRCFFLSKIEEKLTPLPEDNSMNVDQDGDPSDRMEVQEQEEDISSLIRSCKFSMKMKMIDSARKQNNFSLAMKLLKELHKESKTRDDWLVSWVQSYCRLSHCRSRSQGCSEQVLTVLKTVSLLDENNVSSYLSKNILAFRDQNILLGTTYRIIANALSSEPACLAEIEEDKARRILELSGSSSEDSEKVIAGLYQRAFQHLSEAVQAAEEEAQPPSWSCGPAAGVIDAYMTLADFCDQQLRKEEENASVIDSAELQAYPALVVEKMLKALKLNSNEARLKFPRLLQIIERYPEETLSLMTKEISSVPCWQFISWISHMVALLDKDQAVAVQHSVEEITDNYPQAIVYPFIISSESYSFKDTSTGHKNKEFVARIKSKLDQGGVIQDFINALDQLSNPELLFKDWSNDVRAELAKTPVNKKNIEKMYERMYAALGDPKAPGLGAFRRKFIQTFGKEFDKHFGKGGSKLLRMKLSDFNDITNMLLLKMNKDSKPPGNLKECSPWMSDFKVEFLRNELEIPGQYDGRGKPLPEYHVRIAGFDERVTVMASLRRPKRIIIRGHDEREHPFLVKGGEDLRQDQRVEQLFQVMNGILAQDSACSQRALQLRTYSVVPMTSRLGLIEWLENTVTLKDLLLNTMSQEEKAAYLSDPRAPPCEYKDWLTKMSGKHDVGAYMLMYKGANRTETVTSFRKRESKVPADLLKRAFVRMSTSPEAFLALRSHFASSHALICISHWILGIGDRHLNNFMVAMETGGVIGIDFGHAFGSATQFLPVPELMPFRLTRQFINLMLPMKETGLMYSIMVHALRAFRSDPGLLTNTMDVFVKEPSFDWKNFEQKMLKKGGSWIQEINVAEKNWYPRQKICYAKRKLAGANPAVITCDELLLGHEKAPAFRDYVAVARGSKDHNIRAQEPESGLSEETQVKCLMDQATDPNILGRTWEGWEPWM

Experiments:
[1] = target: T1, Flag-TRIM24 wild type (tripartite motif containing 24) (human) (UniProt O15164); assay: condition: only in NHA cells lacking the HRas^V12 mutation; co-IP; NHA cells without HRas^V12, co-transfected with TRIM24, Ku70 and Ku80 constructs; lysate, Western blot
T1 sequence: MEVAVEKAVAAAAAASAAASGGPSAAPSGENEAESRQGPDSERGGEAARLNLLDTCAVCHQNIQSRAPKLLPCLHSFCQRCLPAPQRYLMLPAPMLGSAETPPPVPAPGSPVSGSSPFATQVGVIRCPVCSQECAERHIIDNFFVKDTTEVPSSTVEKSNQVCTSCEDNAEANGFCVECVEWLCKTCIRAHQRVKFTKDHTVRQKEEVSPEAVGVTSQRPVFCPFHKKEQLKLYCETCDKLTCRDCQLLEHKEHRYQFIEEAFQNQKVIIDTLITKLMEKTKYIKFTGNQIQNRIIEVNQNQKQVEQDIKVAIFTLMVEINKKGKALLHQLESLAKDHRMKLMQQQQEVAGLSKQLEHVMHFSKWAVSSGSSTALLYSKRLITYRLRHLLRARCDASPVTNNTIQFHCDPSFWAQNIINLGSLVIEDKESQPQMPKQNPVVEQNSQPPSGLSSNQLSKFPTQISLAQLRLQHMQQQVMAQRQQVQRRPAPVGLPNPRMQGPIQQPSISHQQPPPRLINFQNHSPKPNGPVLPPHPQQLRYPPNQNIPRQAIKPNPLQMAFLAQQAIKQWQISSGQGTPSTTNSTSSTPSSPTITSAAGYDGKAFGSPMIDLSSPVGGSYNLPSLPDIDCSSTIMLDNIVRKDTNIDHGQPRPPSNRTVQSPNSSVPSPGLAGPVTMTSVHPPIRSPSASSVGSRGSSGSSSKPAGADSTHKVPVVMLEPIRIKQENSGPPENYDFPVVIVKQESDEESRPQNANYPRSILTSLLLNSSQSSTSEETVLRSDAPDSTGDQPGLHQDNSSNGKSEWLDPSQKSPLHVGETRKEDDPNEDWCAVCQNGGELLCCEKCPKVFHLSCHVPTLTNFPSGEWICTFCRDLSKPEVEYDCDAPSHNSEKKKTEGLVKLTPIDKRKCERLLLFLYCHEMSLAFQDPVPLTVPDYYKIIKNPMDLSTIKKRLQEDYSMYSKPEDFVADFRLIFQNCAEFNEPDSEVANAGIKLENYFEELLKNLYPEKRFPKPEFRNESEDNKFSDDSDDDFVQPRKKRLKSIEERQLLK

[2] = target: T1, Flag-TRIM24 wild type (tripartite motif containing 24) (human); assay: co-IP; HEK293T cells without HRas^V12 (Figure S7A,B); lysate
[3] = target: T1, Flag-TRIM24 wild type (tripartite motif containing 24) (human); assay: co-IP; HEK293T cells with HRas^V12 (Figure S7A,B); lysate
[4] = target: T1, Flag-TRIM24 wild type (tripartite motif containing 24) (human); assay: co-IP; NHA cells with HRas^V12, co-transfected with TRIM24, Ku70 and Ku80 constructs; lysate, Western blot
[5] = target: T2, TRIM24 deletion mutant D1 (lacks residues 824-1050) (human) (UniProt O15164); assay: co-IP; lysates of NHA/HRas^V12 cells expressing TRIM24 WT, deletion or point mutants; IP lysis buffer (20 mM Tris-HCl pH 7.5, 150 mM NaCl, 1 mM EDTA, 1% Triton X-100), 4 °C, four washes, Western blot; endogenous DNA-PK complex; some panels after NU7441 (4 µM, 24 h), Dabrafenib (40 µM, 24 h), U3 snoRNA knock-down or PHAX knock-down
T2 sequence: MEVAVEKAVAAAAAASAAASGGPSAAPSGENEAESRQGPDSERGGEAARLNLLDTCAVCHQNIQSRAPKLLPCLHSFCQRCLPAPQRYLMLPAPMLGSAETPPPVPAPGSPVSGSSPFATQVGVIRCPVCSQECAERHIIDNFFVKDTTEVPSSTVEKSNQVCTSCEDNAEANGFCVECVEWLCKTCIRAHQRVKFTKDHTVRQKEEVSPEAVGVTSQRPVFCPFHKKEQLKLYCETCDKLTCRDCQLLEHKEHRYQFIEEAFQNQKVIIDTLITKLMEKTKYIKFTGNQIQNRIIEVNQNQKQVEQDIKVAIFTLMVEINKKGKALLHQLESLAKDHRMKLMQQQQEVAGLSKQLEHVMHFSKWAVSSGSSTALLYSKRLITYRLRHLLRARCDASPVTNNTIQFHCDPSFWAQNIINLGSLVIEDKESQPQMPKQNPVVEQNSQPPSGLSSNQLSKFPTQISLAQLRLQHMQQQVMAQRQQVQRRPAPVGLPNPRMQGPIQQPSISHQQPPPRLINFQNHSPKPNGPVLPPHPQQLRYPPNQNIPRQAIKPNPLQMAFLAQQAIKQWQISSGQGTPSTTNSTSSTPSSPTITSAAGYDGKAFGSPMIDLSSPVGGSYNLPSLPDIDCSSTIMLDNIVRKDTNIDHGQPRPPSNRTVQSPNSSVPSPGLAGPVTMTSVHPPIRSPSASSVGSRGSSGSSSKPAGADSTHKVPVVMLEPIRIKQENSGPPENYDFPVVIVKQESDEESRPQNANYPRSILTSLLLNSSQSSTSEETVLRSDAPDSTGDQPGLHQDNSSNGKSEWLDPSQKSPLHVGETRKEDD

binding [1]: no binding
binding [3]: binds
binding [4]: binds
binding [5]: binds
Substance: DNA-dependent protein kinase catalytic subunit (DNA-PKcs) (from UniProt P78527 1-4128) (enzyme)
binding [2]: no binding (condition: in HEK293T cells without HRas^V12)
